Reference: article PMC5349559
These are yes or no findings as the source states them, for the method shown. Some results given as binding are weak or reduced against the parent protein; the word gives no strength.

Amino acid sequences for entries named in this document (tags omitted). Residues count along the entry.
UniProt P13500, residues 24-99: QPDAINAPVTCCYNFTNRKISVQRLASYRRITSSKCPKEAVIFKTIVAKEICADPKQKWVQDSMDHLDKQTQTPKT

Biological target: CCR2b (UniProt P41597)
Assay: radioligand binding; cold-ligand competition on 2 x 10^5 HEK-CCR2b cells; unlabelled CCL2 or NO2-CCL2 at 0.1-650 nM with a tracer amount of [125I]-CCL2; on ice with agitation 2 hr; binding buffer 1 mM CaCl2, 5 mM MgCl2, 50 mM HEPES, 0.5% BSA, pH7.2; washed with binding buffer with 0.5 M NaCl; one site competition analysis; only the binder purified

- binding: binds
Substance: [125I]-CCL2 (from UniProt P13500 24-99) (ligand)
